# Assay results published in patent publication US7615609 (dated 2009).
# Key:
# peptide synthesis = settings: HPLC (% b.a., (F)-HPLC)
# [1] = Fmoc solid-phase peptide synthesis; 4-(Chloro(diphenyl)methyl)benzoyl aminomethyl polystyrene resin; DICI/HOBt; settings: whole synthesis, HPLC (% b.a., (F)-HPLC)
substance,measurement,setting,value
"(H-Phe-[(2S,4R)-4-(Boc-NH—CH2—CH2—NH—CO—O)]-Pro-Phg-D-Trp-Lys(BOC)-OMe)",crude HPLC purity,peptide synthesis; late stage modification step,93.1%
"FMOC-Tyr(Bzl)-Phe-[(2S,4R)-4-(BOC-NH—CH2—CH2—NH—CO—O)]-Pro-Phg-D-Trp-Lys(BOC)-OMe",crude HPLC purity,peptide synthesis; coupling step,95.4%
"H-Tyr(Bzl)-Phe-(2S,4R)-4-(Boc-NH—CH2—CH2—NH—CO—O)-Pro-Phg-D-Trp(Boc)Lys(Boc)-OH",crude HPLC purity,[1]; scale 4.0 g peptide resin,95.2%
same,crude HPLC purity,[1]; scale 6.2 g peptide resin,92.6%
same,crude HPLC purity,[1]; scale 24.5 g peptide resin,91.6%
"H-Tyr(Bzl)-Phe-(2S,4R)-4-(Boc-NH—CH2—CH2—NH—CO—O)-Pro-Phg-D-Trp-Lys(Boc)-OH",final HPLC purity,peptide synthesis; late stage modification step,87.5%
"H-[(2S,4R)-4-(Boc-NH—CH2—CH2—NH—CO—O)]-Pro-Phg-D-Trp-Lys(BOC)-OMe",crude HPLC purity,peptide synthesis; late stage modification step,97.0%
"Z-Phe-[(2S,4R)-4-(Boc-N H—CH2—CH2—NH—CO—O)]-Pro-Phg-D-Trp-Lys(BOC)-OMe",crude HPLC purity,peptide synthesis; coupling step,97.2%
"Z-[(2S,4R)-4-(Boc-NH—CH2—CH2—NH—CO—O)]-Pro-Phg-D-Trp-Lys(BOC)-OMe",crude HPLC purity,peptide synthesis; coupling step,91.0%
